Experimental data as given in patent US20050158838A1.
Numbering of substitutions follows the chain as printed. No constants are given. Whether binding was seen depends on the method and setting. Some binding calls cover weakened binding; strength is not graded here.

B1: phage isolate 5-A01 display polypeptide (protein, not shown: large carriers)
chain: AEWHPQFSSPSASRPSEGPCHPQFPRCYIENLDEFRPGGSGGDRMYQLDKTGFMIGAQSDGGGSTEHAEGGSADPSYIEGRIVGSA
B2: phage isolate 5-A08 display polypeptide (protein, not shown: large carriers)
chain: B1 chain with R44M, M45F, Y46S, Q47E, L48E, K50R, T51M, G52M, F53Q, I55Q
B3: phage isolate 5-A11 display polypeptide (protein, not shown: large carriers)
chain: AEWHPQFSSPSASRPSEGPCHPQFPRCYIENLDEFRPGGSGGDLNDVYSERMAMWGAQSDGGGSTEHAEGGSADPSYIEGRIVGSA
B4: phage isolate 5-B05 display polypeptide (protein, not shown: large carriers)
chain: B3 chain with D43S, N45D, V47D, Y48R, S49T, E50V, R51S, M52P, A53K, M54F
B5: phage isolate 5-H11 display polypeptide ((Asp)4-Lys-containing recognition sequence) (protein, not shown: large carriers)
chain: AEWHPQFSSPSASRPSEGPCHPQFPRCYIENLDEFRPGGSGGMGDDDDKIYVYKTGAQSDGGGSTEHAEGGSADPSYIEGRIVGSA
B6: phage isolate 5-F08 display polypeptide (unselected control) (protein, not shown: large carriers)
chain: AEWHPQFSSPSASRPSEGPCHPQFPRCYIENLDEFRPGGSGGAVLSNVMHSDDWTGAQSDGGGSTEHAEGGSADPSYIEGRIVGSA

Target: streptavidin (immobilized on polystyrene magnetic beads or microtiter wells) (UniProt P22629)
Assay: phage ELISA, phage bound to immobilized streptavidin

Row | Binder | binding
1 | B1 | binds
2 | B2 | binds
3 | B3 | binds
4 | B4 | binds
5 | B5 | binds
6 | B6 | binds
